These are yes or no findings as the source states them, for the method shown. Binding seen in cells or lysates may run through a third protein. Some binding calls cover weakened binding; strength is not graded here.
Experiments:
[1] = biological target: EGFR (human) (UniProt P00533); assay: co-immunoprecipitation, as retold in the discussion
[2] = biological target: integrin αV (human) (UniProt P06756); assay: as above
[3] = biological target: integrin αV (human) (UniProt P06756); assay: co-immunoprecipitation with anti-S100A10 from S100A10-OE PLC cell lysate
[4] = biological target: integrin αV (human) (UniProt P06756); assay: co-immunoprecipitation with anti-S100A10 or IgG from S100A10-OE PLC cells (FIG. 6F)
[5] = biological target: EGFR (human) (UniProt P00533); assay: co-immunoprecipitation with anti-S100A10 or anti-EGFR from S100A10-OE PLC cell lysate
[6] = biological target: EGFR (human) (UniProt P00533); assay: co-immunoprecipitation with anti-S100A10, anti-EGFR or IgG from S100A10-OE PLC cells (FIG. 8I)

Sequences of proteins named here, by UniProt entry; tags and fusion partners are left off. A change or cut given only in a name is not applied to a line headed by its entry. Residues count along the entry.
UniProt P06756, residues 31-1048: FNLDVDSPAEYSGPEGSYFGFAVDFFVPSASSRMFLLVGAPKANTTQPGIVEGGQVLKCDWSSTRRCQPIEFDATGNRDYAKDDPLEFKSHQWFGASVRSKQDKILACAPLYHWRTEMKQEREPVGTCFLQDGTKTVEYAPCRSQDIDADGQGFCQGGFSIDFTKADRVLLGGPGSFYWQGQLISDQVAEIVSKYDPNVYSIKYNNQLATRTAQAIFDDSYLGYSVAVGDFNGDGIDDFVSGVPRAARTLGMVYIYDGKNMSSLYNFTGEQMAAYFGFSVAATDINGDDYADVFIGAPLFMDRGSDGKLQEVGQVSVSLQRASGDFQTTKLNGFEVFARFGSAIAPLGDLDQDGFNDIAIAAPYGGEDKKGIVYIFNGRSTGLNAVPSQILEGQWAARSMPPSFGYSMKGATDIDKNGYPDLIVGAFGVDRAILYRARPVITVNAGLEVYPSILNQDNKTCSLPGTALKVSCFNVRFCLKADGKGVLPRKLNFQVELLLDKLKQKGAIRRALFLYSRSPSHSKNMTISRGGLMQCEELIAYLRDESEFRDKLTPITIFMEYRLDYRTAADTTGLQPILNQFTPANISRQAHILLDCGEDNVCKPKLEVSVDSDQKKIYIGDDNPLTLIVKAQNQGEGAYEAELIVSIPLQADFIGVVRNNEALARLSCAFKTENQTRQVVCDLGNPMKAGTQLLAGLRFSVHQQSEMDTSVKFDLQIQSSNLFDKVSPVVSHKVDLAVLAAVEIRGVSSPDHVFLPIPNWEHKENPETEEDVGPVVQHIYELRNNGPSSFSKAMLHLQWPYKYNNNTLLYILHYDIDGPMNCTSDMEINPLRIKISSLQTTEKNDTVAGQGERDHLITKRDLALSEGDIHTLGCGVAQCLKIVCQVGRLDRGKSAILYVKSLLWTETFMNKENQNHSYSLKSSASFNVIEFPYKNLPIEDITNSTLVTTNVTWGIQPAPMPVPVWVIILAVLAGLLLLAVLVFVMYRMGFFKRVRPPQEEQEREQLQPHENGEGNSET
UniProt P60903: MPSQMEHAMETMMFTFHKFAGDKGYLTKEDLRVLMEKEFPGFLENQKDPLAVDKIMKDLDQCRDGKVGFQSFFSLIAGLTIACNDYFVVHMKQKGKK

Measured: binding

S100A10 (from UniProt P60903 2-97)
binds: all assays above
